{"source": "the supplement of paper PMC8728848", "experiment_in_all_cases": "glycan array binding signal (z-score within array); higher = stronger binding", "settings_in_all_cases": "glycan notation: IUPAC condensed, linker removed", "key": {"[1]": {"molecular_target": "Gal(b1-3)GlcNAc(b1-6)[Gal(b1-3)]GalNAc", "procedure,_shortened": "(§1)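 The Consortium for Functional Glycomics database supplied 3228 glycan arrays, of which those lacking an available protein sequence were dropped. The binding signal, a within-array Z-score, was averaged across arrays of the same protein sequence and across linkers. Negative scores can be read as non-binding.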"}, "Gal(b1-3)GlcNAc6S": {"molecular_target": "Gal(b1-3)GlcNAc6S", "procedure,_shortened": "as §1"}, "[2]": {"molecular_target": "Gal(b1-3)[Fuc(a1-4)]GlcNAc", "procedure,_shortened": "as §1"}, "[3]": {"molecular_target": "Gal(b1-3)[Fuc(a1-4)]GlcNAc(b1-2)Man", "procedure,_shortened": "as §1"}, "[4]": {"molecular_target": "Gal(b1-3)[Fuc(a1-4)]GlcNAc(b1-2)Man(a1-3)[Gal(b1-3)[Fuc(a1-4)]GlcNAc(b1-2)Man(a1-6)]Man(b1-4)GlcNAc(b1-4)[Fuc(a1-6)]GlcNAc", "procedure,_shortened": "as §1"}, "[5]": {"molecular_target": "Gal(b1-3)[Fuc(a1-4)]GlcNAc(b1-3)Gal(b1-3)[Fuc(a1-4)]GlcNAc", "procedure,_shortened": "as §1"}, "[6]": {"molecular_target": "Gal(b1-3)[Fuc(a1-4)]GlcNAc(b1-3)Gal(b1-4)[Fuc(a1-3)]GlcNAc", "procedure,_shortened": "as §1"}, "[7]": {"molecular_target": "Gal(b1-3)[Fuc(a1-4)]GlcNAc(b1-6)GalNAc", "procedure,_shortened": "as §1"}, "[8]": {"molecular_target": "Gal(b1-3)[GlcNAc(b1-6)]GalNAc", "procedure,_shortened": "as §1"}, "[9]": {"molecular_target": "Gal(b1-3)[Neu5Ac(a2-6)]GalNAc", "procedure,_shortened": "as §1"}, "[10]": {"molecular_target": "Gal(b1-3)[Neu5Ac(a2-6)]GlcNAc(b1-4)Gal(b1-4)Glc", "procedure,_shortened": "as §1"}, "[11]": {"molecular_target": "Gal(b1-3)[Neu5Ac(b2-6)]GalNAc", "procedure,_shortened": "as §1"}, "Gal(b1-4)Gal": {"molecular_target": "Gal(b1-4)Gal", "procedure,_shortened": "as §1"}, "[12]": {"molecular_target": "Gal(b1-4)GalNAc(a1-3)[Fuc(a1-2)]Gal(b1-4)GlcNAc", "procedure,_shortened": "as §1"}, "[13]": {"molecular_target": "Gal(b1-4)GalNAc(b1-3)[Fuc(a1-2)]Gal(b1-4)GlcNAc", "procedure,_shortened": "as §1"}, "Gal(b1-4)Glc": {"molecular_target": "Gal(b1-4)Glc", "procedure,_shortened": "as §1"}, "Gal(b1-4)Glc6S": {"molecular_target": "Gal(b1-4)Glc6S", "procedure,_shortened": "as §1"}, "Gal(b1-4)GlcNAc": {"molecular_target": "Gal(b1-4)GlcNAc", "procedure,_shortened": "as §1"}, "[14]": {"molecular_target": "Gal(b1-4)GlcNAc(a1-6)Gal(b1-4)GlcNAc", "procedure,_shortened": "as §1"}, "Gal(b1-4)GlcNAc(b1-2)Man": {"molecular_target": "Gal(b1-4)GlcNAc(b1-2)Man", "procedure,_shortened": "as §1"}, "[15]": {"molecular_target": "Gal(b1-4)GlcNAc(b1-2)Man(a1-3)Man(b1-4)GlcNAc(b1-4)GlcNAc", "procedure,_shortened": "as §1"}, "[16]": {"molecular_target": "Gal(b1-4)GlcNAc(b1-2)Man(a1-3)[Gal(b1-4)GlcNAc(b1-2)Man(a1-6)]Man(b1-4)GlcNAc(b1-4)GlcNAc", "procedure,_shortened": "as §1"}, "[17]": {"molecular_target": "Gal(b1-4)GlcNAc(b1-2)Man(a1-3)[Gal(b1-4)GlcNAc(b1-2)Man(a1-6)]Man(b1-4)GlcNAc(b1-4)[Fuc(a1-6)]GlcNAc", "procedure,_shortened": "as §1"}, "[18]": {"molecular_target": "Gal(b1-4)GlcNAc(b1-2)Man(a1-3)[Gal(b1-4)GlcNAc(b1-2)Man(a1-6)][Gal(b1-4)GlcNAc(b1-4)]Man(b1-4)GlcNAc(b1-4)[Fuc(a1-6)]GlcNAc", "procedure,_shortened": "as §1"}, "[19]": {"molecular_target": "Gal(b1-4)GlcNAc(b1-2)Man(a1-3)[Gal(b1-4)GlcNAc(b1-2)Man(a1-6)][GlcNAc(b1-4)]Man(b1-4)GlcNAc(b1-4)[Fuc(a1-6)]GlcNAc", "procedure,_shortened": "as §1"}, "[20]": {"molecular_target": "Gal(b1-4)GlcNAc(b1-2)Man(a1-3)[GlcNAc(b1-2)Man(a1-6)]Man(b1-4)GlcNAc(b1-4)GlcNAc", "procedure,_shortened": "as §1"}, "[21]": {"molecular_target": "Gal(b1-4)GlcNAc(b1-2)Man(a1-3)[GlcNAc(b1-4)][Gal(b1-4)GlcNAc(b1-2)Man(a1-6)]Man(b1-4)GlcNAc(b1-4)GlcNAc", "procedure,_shortened": "as §1"}, "[22]": {"molecular_target": "Gal(b1-4)GlcNAc(b1-2)Man(a1-3)[Man(a1-6)]Man(b1-4)GlcNAc(b1-4)GlcNAc", "procedure,_shortened": "as §1"}, "[23]": {"molecular_target": "Gal(b1-4)GlcNAc(b1-2)Man(a1-6)Man(b1-4)GlcNAc(b1-4)GlcNAc", "procedure,_shortened": "as §1"}, "[24]": {"molecular_target": "Gal(b1-4)GlcNAc(b1-2)Man(a1-6)[GlcNAc(b1-2)Man(a1-3)]Man(b1-4)GlcNAc(b1-4)GlcNAc", "procedure,_shortened": "as §1"}, "[25]": {"molecular_target": "Gal(b1-4)GlcNAc(b1-2)Man(a1-6)[Man(a1-3)]Man(b1-4)GlcNAc(b1-4)GlcNAc", "procedure,_shortened": "as §1"}, "[26]": {"molecular_target": "Gal(b1-4)GlcNAc(b1-2)[Gal(b1-4)GlcNAc(b1-4)]Man(a1-3)[Gal(b1-4)GlcNAc(b1-2)Man(a1-6)]Man(b1-4)GlcNAc(b1-4)GlcNAc", "procedure,_shortened": "as §1"}, "[27]": {"molecular_target": "Gal(b1-4)GlcNAc(b1-2)[Gal(b1-4)GlcNAc(b1-4)]Man(a1-3)[Gal(b1-4)GlcNAc(b1-2)[Gal(b1-4)GlcNAc(b1-6)]Man(a1-6)]Man(b1-4)GlcNAc(b1-4)GlcNAc", "procedure,_shortened": "as §1"}, "[28]": {"molecular_target": "Gal(b1-4)GlcNAc(b1-2)[Gal(b1-4)GlcNAc(b1-4)]Man(a1-3)[GlcNAc(b1-4)][Gal(b1-4)GlcNAc(b1-2)Man(a1-6)]Man(b1-4)GlcNAc(b1-4)GlcNAc", "procedure,_shortened": "as §1"}, "[29]": {"molecular_target": "Gal(b1-4)GlcNAc(b1-2)[Gal(b1-4)GlcNAc(b1-4)]Man(a1-3)[GlcNAc(b1-4)][Gal(b1-4)GlcNAc(b1-2)[Gal(b1-4)GlcNAc(b1-6)]Man(a1-6)]Man(b1-4)GlcNAc(b1-4)GlcNAc", "procedure,_shortened": "as §1"}, "[30]": {"molecular_target": "Gal(b1-4)GlcNAc(b1-2)[Gal(b1-4)GlcNAc(b1-6)]Man(a1-6)[Gal(b1-4)GlcNAc(b1-2)Man(a1-3)]Man(b1-4)GlcNAc(b1-4)GlcNAc", "procedure,_shortened": "as §1"}, "[31]": {"molecular_target": "Gal(b1-4)GlcNAc(b1-2)[Gal(b1-4)GlcNAc(b1-6)]Man(a1-6)[Gal(b1-4)GlcNAc(b1-2)Man(a1-3)]Man(b1-4)GlcNAc(b1-4)[Fuc(a1-6)]GlcNAc", "procedure,_shortened": "as §1"}}, "note": "Some of the results follow.", "data": [{"binder": "SspB C123 (Streptococcus gordonii), Q54186 (protein) MAHFHYSSLLAQPQINKEIKNEDGVDIDRTLVAKQSIGKFELKTEALTAGRPKTTSFVLVDPLPTGYKFDLDATKAASTGFDTTYDEASHTVTFKATDETLATYNADLTKPVETLHPTVVGRVLNDGATYTNNFTLTVNDAYGIKSNVVRVTTPGKPNDPDNPNNNYIKPTKVNKNKEGLNIDGKEVLAGSTNYYELTWDLDQYKGDKSSKEAIQNGFYYVDDYPEEALDVRPDLVKVADEKGNQVSGVSVQQYDSLEAAPKKVQDLLKKANITVKGAFQLFSADNPEEFYKQYVSTGTSLVITDPMTVKSEFGKTGGKYENKAYQIDFGNGYATEVVVNNVPKITPKKDVTVSLDPTSENLDGQTVQLYQTFNYRLIGGFIPQNHSEELEDYSFVDDYDQAGDQYTGNYKTFSSLNLTMKDGSVIKAGTDLTSQTTAETDATNGIVTVRFKEDFLQKISLDSPFQAETYLQMRRIAIGTFENTYVNTVNKVAYASAAALEHHHHHH", "values": [{"measurement": "glycan array binding signal (z-score)", "setting": "[1]", "result": -0.374}, {"measurement": "glycan array binding signal (z-score)", "setting": "Gal(b1-3)GlcNAc6S", "result": -1.15}, {"measurement": "glycan array binding signal (z-score)", "setting": "[2]", "result": -0.989}, {"measurement": "glycan array binding signal (z-score)", "setting": "[3]", "result": 0.056}, {"measurement": "glycan array binding signal (z-score)", "setting": "[4]", "result": 0.824}, {"measurement": "glycan array binding signal (z-score)", "setting": "[5]", "result": -1.39}, {"measurement": "glycan array binding signal (z-score)", "setting": "[6]", "result": 0.768}, {"measurement": "glycan array binding signal (z-score)", "setting": "[7]", "result": 2.16}, {"measurement": "glycan array binding signal (z-score)", "setting": "[8]", "result": -0.709}, {"measurement": "glycan array binding signal (z-score)", "setting": "[9]", "result": 0.134}, {"measurement": "glycan array binding signal (z-score)", "setting": "[10]", "result": -0.434}, {"measurement": "glycan array binding signal (z-score)", "setting": "[11]", "result": 0.509}, {"measurement": "glycan array binding signal (z-score)", "setting": "Gal(b1-4)Gal", "result": 1.04}, {"measurement": "glycan array binding signal (z-score)", "setting": "[12]", "result": -1.16}, {"measurement": "glycan array binding signal (z-score)", "setting": "[13]", "result": 0.688}, {"measurement": "glycan array binding signal (z-score)", "setting": "Gal(b1-4)Glc", "result": 0.597}, {"measurement": "glycan array binding signal (z-score)", "setting": "Gal(b1-4)Glc6S", "result": 0.313}, {"measurement": "glycan array binding signal (z-score)", "setting": "Gal(b1-4)GlcNAc", "result": 0.473}, {"measurement": "glycan array binding signal (z-score)", "setting": "[14]", "result": -0.498}, {"measurement": "glycan array binding signal (z-score)", "setting": "Gal(b1-4)GlcNAc(b1-2)Man", "result": -0.183}, {"measurement": "glycan array binding signal (z-score)", "setting": "[15]", "result": 0.377}, {"measurement": "glycan array binding signal (z-score)", "setting": "[16]", "result": -0.017}, {"measurement": "glycan array binding signal (z-score)", "setting": "[17]", "result": -1.01}, {"measurement": "glycan array binding signal (z-score)", "setting": "[18]", "result": -0.319}, {"measurement": "glycan array binding signal (z-score)", "setting": "[19]", "result": -0.815}, {"measurement": "glycan array binding signal (z-score)", "setting": "[20]", "result": 1.68}, {"measurement": "glycan array binding signal (z-score)", "setting": "[21]", "result": -0.619}, {"measurement": "glycan array binding signal (z-score)", "setting": "[22]", "result": 0.338}, {"measurement": "glycan array binding signal (z-score)", "setting": "[23]", "result": -0.895}, {"measurement": "glycan array binding signal (z-score)", "setting": "[24]", "result": 0.023}, {"measurement": "glycan array binding signal (z-score)", "setting": "[25]", "result": 0.942}, {"measurement": "glycan array binding signal (z-score)", "setting": "[26]", "result": 1.41}, {"measurement": "glycan array binding signal (z-score)", "setting": "[27]", "result": -0.541}, {"measurement": "glycan array binding signal (z-score)", "setting": "[28]", "result": -0.114}, {"measurement": "glycan array binding signal (z-score)", "setting": "[29]", "result": -0.188}, {"measurement": "glycan array binding signal (z-score)", "setting": "[30]", "result": 0.076}, {"measurement": "glycan array binding signal (z-score)", "setting": "[31]", "result": 0.366}]}]}
